Results as given in PubChem BioAssay AID504834 (National Center for Advancing Translational Sciences (NCATS), 2011).
Screen size: about 320,000 compounds; about 22,000 (6.9%) were called active. The shares of active, inactive and inconclusive entries below differ from those in the screen. Calls come from the whole dose curve; as a rule, active = well fitted inhibition curve with a large enough effect; inconclusive = small, poorly fitted or top-dose-only effect, or another doubt; inactive = no such curve, though single readings can be large or run the other way. Potencies beside an inconclusive call are fits to weak or partial responses and may not hold up.
% is set by controls: 0 for no effect and ±100 for the full control effect; potency is the fitted concentration of half-maximal effect.

Assay: Primary qHTS for delayed death inhibitors of the malarial parasite plastid, 96 hour incubation
Details: P. falciparum luciferase reporter growth; series mostly up to 28.7 µM; activity change, negative = inhibition: at the top concentration
In short: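 Two parasite generations (96 h, 37 C, 5% CO2) of compound exposure in infected erythrocytes (0.05% parasitemia, 2% hematocrit). Luciferase-reporter P. falciparum; decreased luminescence indicates inhibited growth, aimed at apicoplast-acting delayed death.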
In the case of `COc1cccc(C(=O)C2CCCN(Cc3c(C)n(C)n(-c4ccccc4)c3=O)C2)c1` (configuration not stated), the “activity change, negative = inhibition” value is reported as inactive: 0.395%. For `Cc1ccccc1C(=O)Nc1cc(NC(=O)c2ccccc2C)cc(C(=O)O)c1`, the Potency was inconclusive: 18.5 µM [inhibitor, single point]. With `O=C(CCN1C(=O)c2ccccc2S1(=O)=O)Nc1cccc2ccccc12` the Potency was inconclusive: 11.7 µM [inhibitor, partial curve, poor fit]. With `COc1ccc(-c2nc(CSCC(=O)NC3CCCC3)c(C)o2)cc1OC` the “activity change, negative = inhibition” value was inactive: 0%. For `COC(=O)C1=C(c2ccc(F)cc2OCc2ccccc2)C[C@@H]2CC[C@H]1N2C(=O)NCc1ccccc1C(F)(F)F`, the Potency was inconclusive: 1.17 µM [inhibitor, full curve, poor fit]. For `CCc1nnc(NC(=O)CSc2ncnc3c2cnn3-c2ccc(OC)cc2)s1`, the Potency was active: 0.0037 µM. In the case of `COCCCNC(=O)c1c(NC(=O)C2COc3ccccc3O2)sc2c1CCCC2` (configuration not stated), the Potency is reported as inconclusive: 11.7 µM [inhibitor, partial curve, poor fit]. For `CCOC(=O)C1(Cc2cccc(Cl)c2)CCCN(C(=O)CCNC(C)=O)C1` (configuration not stated), the Potency was inconclusive: 11.7 µM [inhibitor, single point]. In the case of `O=C(CN1C(=O)c2ccccc2C1=O)Nc1cccc2cccnc12`, the Potency is reported as inconclusive: 2.62 µM [inhibitor, partial curve, poor fit]. In the case of `CCOC(=O)c1c(CCl)nc2ccccc2c1C`, the Potency is reported as inconclusive: 2.62 µM [inhibitor, full curve, poor fit]. In the case of `Cc1ccc(OCC(=O)NNC(=O)C(=O)N2CCCC2)c(C)c1`, the Potency is reported as inconclusive: 13.1 µM [inhibitor, single point]. In the case of `COc1ccc(CNC(=O)c2cc(=O)c3ccc(C)c(C)c3o2)cc1`, the Potency is reported as inconclusive: 18.5 µM [inhibitor, single point]. For `CCn1c(SCC(=O)OCC(=O)N2c3ccccc3NC(=O)C2(C)C)nnc1-c1ccco1`, the Potency was inconclusive: 11.7 µM [inhibitor, single point]. For `COc1ccc(-c2nn(-c3ccccc3)cc2CNC(C)Cn2cncn2)c(F)c1` (configuration not stated), the Potency was inconclusive: 10.4 µM [inhibitor, single point]. In the case of `CCOC(=O)c1cnc2c(cnn2CC)c1NN=C(C)C`, the Potency is reported as inconclusive: 8.49 µM [inhibitor, partial curve, poor fit]. For `CCc1ccc(Nc2n[n+](-c3ccccc3)c(-c3c(Cl)cccc3Cl)s2)cc1`, the Potency was inconclusive: 5.22 µM [inhibitor, partial curve, poor fit]. With `O=C(Nc1cccc2ccccc12)/C(=C/c1cccc([N+](=O)[O-])c1)NC(=O)c1cccs1` the Potency was inconclusive: 18.5 µM [inhibitor, single point].
